Results reported in ChEMBL document CHEMBL1137754, “Inhibitors of potassium channels KV1.3 and IK-1 as immunosuppressants” (Bioorg Med Chem Lett, 2009).
The source made the active and inactive calls. No cut-off for these calls is given here.

Columns and labels:
[1] = tested on: PBMC; test: Immunosuppressant activity in human effector memory T cells of PBMC assessed as inhibition of anti-CD3 antibody-induced cell proliferation by ELISA; type: functional, cell-based
[2] = tested on: PBMC; test: Immunosuppressant activity in human effector memory T cells of PBMC assessed as inhibition of anti-CD3 antibody-induced cell proliferation by ELISA in presence of 5 uM Kv1.3-blocker PAP1; type: functional, cell-based
Summary of the method: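 T_EM fraction of PBMCs stimulated with anti-CD3 antibody; proliferation dose–response curves for one channel blocker were run against a fixed background of a blocker of the other channel (IK-1 blocker, or 5 µM PAP-1 for Kv1.3). The read-out was EC50.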

O=C1CN(S(=O)(=O)c2ccc(Cl)cc2)c2ccccc2-c2ccccc21
Activity [1]: inactive | EC50 [2]: 8 µM
